According to PMC4956120:
Results are given in words; binding and its absence hold for the method and conditions named. In cells and extracts the contact can be indirect. Some entries that bind do so weakly or less than the wild type. For some of these results: Tags and fused reporters may be left off the sequences shown.

Amino acid sequences for entries named in this document (tags omitted).
UniProt P32114: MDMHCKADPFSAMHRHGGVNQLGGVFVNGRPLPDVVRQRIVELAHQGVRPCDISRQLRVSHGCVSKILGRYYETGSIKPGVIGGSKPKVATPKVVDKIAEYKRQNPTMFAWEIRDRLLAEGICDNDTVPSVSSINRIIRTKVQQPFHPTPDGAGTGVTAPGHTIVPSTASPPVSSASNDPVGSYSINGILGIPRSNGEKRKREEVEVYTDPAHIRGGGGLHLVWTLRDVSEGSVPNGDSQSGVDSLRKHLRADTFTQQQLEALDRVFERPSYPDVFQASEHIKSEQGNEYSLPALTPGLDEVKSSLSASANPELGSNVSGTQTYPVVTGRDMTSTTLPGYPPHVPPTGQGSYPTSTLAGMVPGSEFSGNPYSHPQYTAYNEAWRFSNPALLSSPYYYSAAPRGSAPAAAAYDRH

Columns and labels:
Flag-tagged Osr1 = Flag-tagged Osr1 (UniProt Q9WVG7); assay: co-IP; HEK293T co-transfected, 48 h; lysed in RIPA buffer; anti-Flag (M2) on protein-G dynabeads, 4°C overnight, five RIPA washes; blot with anti-c-Myc
Myc-tagged Osr1 = Myc-tagged Osr1 (UniProt Q9WVG7); assay: co-IP; HEK293T co-transfected, 48 h; lysed in RIPA buffer; anti-c-Myc antibody on protein-G agarose beads, 4°C overnight, five RIPA washes; blot with anti-Flag
[1] = molecular target: TY1-Osr1 fusion protein (endogenous Osr1 with a 2xTY1 epitope tag at the N-terminus) (mouse (endogenous in E16.5 kidney)) (UniProt Q9WVG7); assay: co-IP; E16.5 kidneys of Osr1^TY1/TY1 and wildtype embryos; lysis buffer 50 mM HEPES pH 7.5, 140 mM NaCl, 1 mM EDTA, 0.5% NP-40, 0.25% TX-100; anti-TY1 antibody on dynabeads, 4°C overnight; blot with anti-Six2 and anti-Wt1

binding (Myc-tagged Osr1)	Molecule	also measured
	Myc-tagged Pax2 (from UniProt P32114 1-414)	binding (Flag-tagged Osr1): no binding
no binding	Flag-tagged Lhx1 (protein, UniProt P63006 1-406) MVHCAGCKRPILDRFLLNVLDRAWHVKCVQCCECKCNLTEKCFSREGKLYCKNDFFRCFGTKCAGCAQGISPSDLVRRARSKVFHLNCFTCMMCNKQLSTGEELYIIDENKFVCKEDYLSNSSVAKENSLHSATTGSDPSLSPDSQDPSQDDAKDSESANVSDKEGGSNENDDQNLGAKRRGPRTTIKAKQLETLKAAFAATPKPTRHIREQLAQETGLNMRVIQVWFQNRRSKERRMKQLSALGARRHAFFRSPRRMRPLVDRLEPGELIPNGPFSFYGDYQSEYYGPGGNYDFFPQGPPSSQAQTPVDLPFVPSSGPSGTPLGGLDHPLPGHHPSSEAQRFTDILAHPPGDSPSPEPSLPGPLHSMSAEVFGPSPPFSSLSVNGGASYGNHLSHPPEMNEAAVW	
binds	Flag-tagged Six2 (protein, UniProt Q62232 1-296) MSMLPTFGFTQEQVACVCEVLQQGGNIERLGRFLWSLPACEHLHKNESVLKAKAVVAFHRGNFRELYKILESHQFSPHNHAKLQQLWLKAHYIEAEKLRGRPLGAVGKYRVRRKFPLPRSIWDGEETSYCFKEKSRSVLREWYAHNPYPSPREKRELAEATGLTTTQVSNWFKNRRQRDRAAEAKERENSENSNSSSHNPLASSLNGSGKSVLGSSEDEKTPSGTPDHSSSSPALLLSPPPPPGLPSLHSLGHPPGPSAVPVPVPGGGGADPLQHHHSLQDSILNPMSANLVDLGS	
	endogenous Six2 (protein, UniProt Q62232 1-296) MSMLPTFGFTQEQVACVCEVLQQGGNIERLGRFLWSLPACEHLHKNESVLKAKAVVAFHRGNFRELYKILESHQFSPHNHAKLQQLWLKAHYIEAEKLRGRPLGAVGKYRVRRKFPLPRSIWDGEETSYCFKEKSRSVLREWYAHNPYPSPREKRELAEATGLTTTQVSNWFKNRRQRDRAAEAKERENSENSNSSSHNPLASSLNGSGKSVLGSSEDEKTPSGTPDHSSSSPALLLSPPPPPGLPSLHSLGHPPGPSAVPVPVPGGGGADPLQHHHSLQDSILNPMSANLVDLGS	binding [1]: binds
